# According to publication PMC5996148:
# The other results are listed elsewhere or left out.
# Key:
# Experiment in all cases: protein microarray (ProtoArray v5.0), streptavidin-Alexa Fluor 647
# Details in all cases: 3'-biotin; 20 mM Tris (pH 7.5), 5 mM MgCl2, 100 mM KCl, 0.1% Tween-20, A/T-rich and random oligonucleotide blockers; temperature not stated; high values mean tight binding
# C1orf38 (human) = system: C1orf38 (human)
# C1orf91 (human) = system: C1orf91 (human)
# C20orf114 (human) = system: C20orf114 (human)
# C20orf142 (human) = system: C20orf142 (human)
# C20orf160 (human) = system: C20orf160 (human)
# C20orf3 (human) = system: C20orf3 (human)
# C20orf70 (human) = system: C20orf70 (human)
# C21orf51 (human) = system: C21orf51 (human)
# C21orf7 (human) = system: C21orf7 (human)
# C21orf84 (human) = system: C21orf84 (human)
sequence,measurement,setting,value
GGTGACAGGGGTATGGGGAGGGG [G4-2 biotinylated (Ct1)],binding signal,C1orf38 (human),-0.363 z-score
same,binding signal,C1orf91 (human),-0.382 z-score
same,binding signal,C20orf114 (human),-0.384 z-score
same,binding signal,C20orf142 (human),-0.383 z-score
same,binding signal,C20orf160 (human),-0.383 z-score
same,binding signal,C20orf3 (human),-0.384 z-score
same,binding signal,C20orf70 (human),-0.365 z-score
same,binding signal,C21orf51 (human),-0.386 z-score
same,binding signal,C21orf7 (human),-0.385 z-score
same,binding signal,C21orf84 (human),-0.382 z-score

# Reformatted bar-delimited: part of the list above
sequence | measurement | setting | value
GGTGACAGGGGTATGGGGAGGGG [G4-2 biotinylated (Ct1)] | binding signal | C21orf7 (human) | -0.385 z-score
same | binding signal | C21orf84 (human) | -0.382 z-score
